Among the data in PubChem BioAssay AID330 (DTP/NCI, 2004) are T/C and survivor count values, retold here.

Molecules are shown by their SMILES. The list is a part of this screen's results and no random one: it gathers some chemical classes. Other doses and runs of a compound may be missing. T/C gives the treated animals as a percentage of the vehicle group. Some doses have a count of surviving animals in place of a T/C: the source holds a T/C of zero for them, seemingly a mark for toxic or unscored doses. Some doses without a T/C left all or most animals alive at the check, yet need not have been tolerated: survival well below the control is almost never listed, so the zero probably covers shortened survival too. Survivors were counted at the toxicity check, usually on the fifth day, unless a day is given; later deaths do not show. Schedule codes are those of the source, read here as Q, the interval in days (D) or hours (H), X, the number of doses. Where survival is the endpoint, the PubChem record calls one and a half times the control and up active, and a quarter to a half above the control has no call in these data; cut-offs in other NCI protocols can differ. Additions like (4×) give the number of equal values in this list. Some doses were run more than once; the values are given in rising order. Some T/C values are followed by the survivors on the day toxicity was checked, most often the fifth; where neither a count nor a note follows, no animal had died by that day.

The test system of this experiment is P388 leukemia ip, CD2F1 mice, survival T/C. The experiment is described as follows: NCI In Vivo Anticancer Drug Screen. Data for tumor model P388 Leukemia (intraperitoneal) in CD2F1 (CDF1) mice. As to conditions: T/C endpoint: median survival time, higher T/C = longer survival.
[1] abbreviates: dose: 25.0 mg/kg/injection, schedule: Q01DX009 (ip), vehicle: saline.
[2] abbreviates: dose: 50.0 mg/kg/injection, schedule: Q01DX009 (ip), vehicle: saline.
Where [3] appears, read: dose: 100.0 mg/kg/injection, schedule: Q01DX009 (ip), vehicle: saline.
Setting [4] is: dose: 25.0 mg/kg/injection, schedule: Q01DX005 (ip), vehicle: Klucel (hydroxypropylcellulose) (HPC).
Where [5] appears, read: dose: 50.0 mg/kg/injection, schedule: Q01DX005 (ip), vehicle: Klucel (hydroxypropylcellulose) (HPC).
[6] abbreviates: dose: 100.0 mg/kg/injection, schedule: Q01DX005 (ip), vehicle: Klucel (hydroxypropylcellulose) (HPC).
The mark [7] stands for this setting: dose: 200.0 mg/kg/injection, schedule: Q01DX005 (ip), vehicle: Klucel (hydroxypropylcellulose) (HPC).

As for `CC(=O)NC1C(O)OC(CS[As](C)C)C(O)C1O` (centres undefined), the T/C reads like this: (dose: 25.0 mg/kg/injection, schedule: Q01DX008 (ip), vehicle: saline) 111 % of control; under setting [1], 121 % of control; (dose: 50.0 mg/kg/injection, schedule: Q01DX008 (ip), vehicle: saline) 110 % of control; under setting [2], 114 [5 of 6 alive] and 137 % of control; (dose: 100.0 mg/kg/injection, schedule: Q01DX008 (ip), vehicle: saline) 119 % of control; under setting [3], 110 and 125 % of control. The T/C (dose: 200.0 mg/kg/injection, schedule: Q01DX009 (ip), vehicle: saline) was 114 % of control.

As for `COc1ccc2c(c1)[C@]1(C)CC[C@@H](O2)[C@]12CO2`, the T/C reads like this: (dose: 10.0 mg/kg/injection, schedule: Q01DX009 (ip), vehicle: Klucel (hydroxypropylcellulose) (HPC)) 95 and 104 % of control; (dose: 12.5 mg/kg/injection, schedule: Q01DX009 (ip), vehicle: saline with Tween-80) 87 % of control; (dose: 20.0 mg/kg/injection, schedule: Q01DX009 (ip), vehicle: Klucel (hydroxypropylcellulose) (HPC)) 100 and 108 % of control; (dose: 25.0 mg/kg/injection, schedule: Q01DX009 (ip), vehicle: saline with Tween-80) 94 % of control; (dose: 40.0 mg/kg/injection, schedule: Q01DX009 (ip), vehicle: Klucel (hydroxypropylcellulose) (HPC)) 101 and 112 % of control; (dose: 50.0 mg/kg/injection, schedule: Q01DX009 (ip), vehicle: saline with Tween-80) 107 % of control. The T/C (dose: 80.0 mg/kg/injection, schedule: Q01DX009 (ip), vehicle: Klucel (hydroxypropylcellulose) (HPC)) is 104 and 134 % of control; the T/C (dose: 160.0 mg/kg/injection, schedule: Q01DX009 (ip), vehicle: Klucel (hydroxypropylcellulose) (HPC)) is 123 % of control.

Consider `COc1ccc(C2=CCN(c3ccc(Cl)cc3)P(=O)(Cl)O2)cc1` (centres undefined), for which the T/C was 102 % of control under setting [4]; 110 % of control under setting [5]; 93 and 117 % of control under setting [6]; 107 [4 of 5 alive] and 121 % of control [5 of 6 alive] under setting [7]. Besides, the survivor count under setting [5] is reported as 5 of 5.

Turning to `CCOC(=O)C(CCSC)NC(=O)OCCNCCCl` (centres undefined), the T/C (dose: 12.5 mg/kg/injection, schedule: Q01DX009 (ip), vehicle: saline) was 145 % of control; the T/C (dose: 22.0 mg/kg/injection, schedule: Q01DX009 (ip), vehicle: saline) was 127 % of control; the T/C under setting [1] is 127 % of control; the T/C (dose: 33.0 mg/kg/injection, schedule: Q01DX009 (ip), vehicle: saline) is 131 % of control; the T/C under setting [2] was 131 and 159 % of control; the T/C (dose: 75.0 mg/kg/injection, schedule: Q01DX009 (ip), vehicle: saline) is 145 % of control. Moreover, the T/C (dose: 100.0 mg/kg/injection, schedule: Q04DX003 (ip), vehicle: saline with Tween-80) was 122 % of control. Besides, the survivor count runs as follows: under setting [3], 3 of 6; (dose: 200.0 mg/kg/injection, schedule: Q04DX003 (ip), vehicle: saline with Tween-80) 3 of 6; (dose: 400.0 mg/kg/injection, schedule: Q04DX003 (ip), vehicle: saline with Tween-80) 0 of 6.

With `CC1CCCN(C)C1.O=[N+]([O-])c1cc([N+](=O)[O-])c(O)c([N+](=O)[O-])c1`, the T/C by setting is: under setting [4], 99 % of control; under setting [5], 107 % of control; under setting [6], 101 % of control [5 of 6 alive]. Besides, the survivor count under setting [7] is 0 of 6.

Regarding `CCN(CCCl)/N=N/c1nc2nc[nH]c(=O)c2[nH]1`, the T/C runs as follows: under setting [5], 100 % of control; under setting [6], 108 % of control; under setting [7], 105 % of control.

For `O=C1c2c([N+](=O)[O-])cc([N+](=O)[O-])c(O)c2C(=O)c2c(O)c([N+](=O)[O-])cc([N+](=O)[O-])c21`, the T/C (dose: 12.5 mg/kg/injection, schedule: Q01DX005 (ip), vehicle: saline with Tween-80) was 99 % of control; the T/C (dose: 25.0 mg/kg/injection, schedule: Q01DX005 (ip), vehicle: saline with Tween-80) is 110 % of control; the T/C (dose: 50.0 mg/kg/injection, schedule: Q01DX005 (ip), vehicle: saline with Tween-80) is 110 % of control (2×); the T/C (dose: 100.0 mg/kg/injection, schedule: Q01DX005 (ip), vehicle: saline with Tween-80) is 115 % of control. Moreover, where the note is “dose: 200.0 mg/kg/injection, schedule: Q01DX005 (ip), vehicle: saline with Tween-80”, the survivor count is listed as 3 of 5.

In the case of `ClP1(Cl)=NP(Cl)(Cl)=NP(Cl)(Cl)=N1`, the T/C (dose: 12.5 mg/kg/injection, schedule: Q01DX009 (ip), vehicle: Klucel (hydroxypropylcellulose) (HPC)) is 93 % of control and the T/C (dose: 25.0 mg/kg/injection, schedule: Q01DX009 (ip), vehicle: Klucel (hydroxypropylcellulose) (HPC)) was 97 % of control. The survivor count by setting is: (dose: 50.0 mg/kg/injection, schedule: Q01DX009 (ip), vehicle: Klucel (hydroxypropylcellulose) (HPC)) 6 of 6; (dose: 100.0 mg/kg/injection, schedule: Q01DX009 (ip), vehicle: Klucel (hydroxypropylcellulose) (HPC)) 1 of 6.

In the case of `NC(=O)C1=CN(CCBr)C=CC1`, the T/C (dose: 50.0 mg/kg/injection, schedule: Q01DX001 (ip), vehicle: Klucel (hydroxypropylcellulose) (HPC)) is 100 % of control and the T/C (dose: 100.0 mg/kg/injection, schedule: Q01DX001 (ip), vehicle: Klucel (hydroxypropylcellulose) (HPC)) was 100 % of control. In addition, under “dose: 200.0 mg/kg/injection, schedule: Q01DX001 (ip), vehicle: Klucel (hydroxypropylcellulose) (HPC)”, the survivor count was 0 of 6.
